{"source": "patent US11311610B2", "about": "“Immune-modulating agents and uses therefor” (UNIVERSITY OF TECHNOLOGY SYDNEY, priority 2010, dated 2022)", "key": {"[1]": {"system": "interaction of LPS with LPS-binding protein (LBP)", "assay": "Assay for the interaction of LPS with LBP (ELISA)", "set-up": "species or system mouse", "settings": "5 μg/well, 1 h before 10% sera; ELISA with anti-LBP", "method": "FIG. 9 is a graphical representation showing LPS neutralization by FhHDM-1. The ability of FhHDM-1 (Δ), FhHDM-1 p1 (●) or FhHDM-1 p3 (▪) to bind to LPS was investigated by (A) incubating a range of concentrations of proteins (0.02-2 μg/well) in an LPS-coated (100 ng/well) microtitre plate. Bound peptides were detected by ELISA using rabbit anti-FhHDM-1 as a primary antibody. (B) FhHDM-1 or derived peptides (0.1 μg) were incubated in the presence of LPS (0.05-5 μg/well) and bound peptides measured as described above. Binding of peptides to the LPS-immobilized plates was expressed as a percentage of that measured for 2 μg (for panel A) or 0.1 μg (for panel B) of FhHDM-1. Data are the means±SD from three separate experiments. […] Interaction of LBP with LPS was measured by ELISA using an anti-LBP primary antibody and expressed as a percentage of that detected for 10% sera in the absence of added peptides. […] Statistical significance was calculated using the student t-test and represent a comparison to the binding of 10% sera to immobilized LPS. […] The binding of FITC-LPS was analyzed by flow cytometry. LPS binding was expressed as a percentage of the mean fluorescence obtained for the addition of FITC-LPS to cells in the absence of peptides. […] Two hours later, sera was collected and serum levels of TNF and (F) IL-10 measured by ELISA. […]"}, "[2]": {"system": "LPS-induced inflammatory response", "assay": "Endotoxin (LPS)-induced inflammation in mice, co-injection", "type": "in vivo, BALB/c mice", "method": "FIG. 9 is a graphical representation showing LPS neutralization by FhHDM-1. The ability of FhHDM-1 (Δ), FhHDM-1 p1 (●) or FhHDM-1 p3 (▪) to bind to LPS was investigated by (A) incubating a range of concentrations of proteins (0.02-2 μg/well) in an LPS-coated (100 ng/well) microtitre plate. Bound peptides were detected by ELISA using rabbit anti-FhHDM-1 as a primary antibody. (B) FhHDM-1 or derived peptides (0.1 μg) were incubated in the presence of LPS (0.05-5 μg/well) and bound peptides measured as described above. Binding of peptides to the LPS-immobilized plates was expressed as a percentage of that measured for 2 μg (for panel A) or 0.1 μg (for panel B) of FhHDM-1. Data are the means±SD from three separate experiments. (C) FhHDM-1 and FhHDM-1 p3 but not FhHDM-1 p1 reduced the interaction between LPS and LBP as effectively as LL-37. LPS-coated microtitre plates were incubated with 5 μg/well of LL-37, FhHDM-1 or derived peptides for 1 h prior to the addition of 10% human sera in PBS. Interaction of LBP with LPS was measured by ELISA using an anti-LBP primary antibody and expressed as a percentage of that detected for 10% sera in the absence of added peptides. Data are the mean±SD of three separate experiments. Statistical significance was calculated using the student t-test and represent a comparison to the binding of 10% sera to immobilized LPS. (D) Binding of FITC-conjugated LPS to RAW264.7 cells was inhibited by LL-37, FhHDM-1 and peptides. RAW264.7 cells (5×10^5 cells/mL) were incubated with 1 μg/mL of FITC-conjugated LPS in the presence of increasing concentrations (0.1-10 μg/mL) of FhHDM-1, FhHDM-1 p1 and FhHDM-1 p3 and LL-37 in RPMI 1640 containing 10% FBS for 20 min at 4° C. The binding of FITC-LPS was analyzed by flow cytometry. LPS binding was expressed as a percentage of the mean fluorescence obtained for the addition of FITC-LPS to cells in the absence of peptides. […] Two hours later, sera was collected and serum levels of TNF and (F) IL-10 measured by ELISA. (G) Peritoneal macrophages were isolated, cultured unstimulated in media overnight and then levels of TNF and (H) IL-10 in the culture measured by ELISA. […]\nHuman Defense peptides protect against harmful inflammatory responses by preventing activation of macrophages by classical TLR ligands such as LPS (Scott et al. 2002, J. Immunol. 169, 3883-3891). […] Two hours later, sera was collected and serum levels of the pro-inflammatory mediators TNF and IL-10 were measured by ELISA. […] Because macrophages are the main source of pro-inflammatory mediators in this murine model of inflammation, peritoneal macrophages were isolated from treated mice (LPS±FhHDM-1, peptides or LL-37 as described above), cultured unstimulated in media overnight and then levels of TNF and IL-10 in the culture media were measured by ELISA. […]"}, "[3]": {"system": "RAW macrophages", "assay": "ATP induced macrophage cell death (LDH release)", "type": "cell-based, murine", "settings": "20 μg/mL pre-treatment 1 h, then ATP 5 mM 2 h", "method": "FIG. 16 is a graphical representation showing that FhHDM-1 P3 prevents ATP induced cell death in RAW macrophages. RAW macrophages were pretreated with either FhHDM-1 (20 μg/mL) or FhHDM-1 p3 (20 μg/mL) for 1 h, then washed and cultured in the presence of ATP (5 mM) for 2 h. Cell death (% cytotoxicity) was quantified according to the amount of LDH released by the cells into culture media.\nRaw macrophages were pre-treated with either HDM (20 μg/mL) or FhHDM-1 P3 (20 μg/mL) for 1 h, washed and then cultured in the presence of ATP (5 mM) for 2 h. The culture supernatants were collected and assayed for LDH activity with an LDH release kit. The amount of LDH release by cells treated with ATP only was used to represent 100% cytotoxicity."}, "[4]": {"settings": "BALB/c mice, 1 μg LPS mixed with 1 μg i.p., 2 h"}, "[5]": {"settings": "macrophages from treated mice, cultured unstimulated overnight"}}, "note": "Part of at least one peptide drawing is inferred or uncertain, most often the ends. Where a SMILES comes first, the peptide text is derived from it."}
{"smiles": "CC[C@H](C)[C@H](NC(=O)[C@H](CCCCN)NC(=O)[C@H](CCC(=O)O)NC(=O)CNC(=O)[C@H](CC(C)C)NC(=O)[C@H](CC(N)=O)NC(=O)[C@H](CC(=O)O)NC(=O)[C@H](CCCCN)NC(=O)[C@H](C)NC(=O)[C@H](CC(C)C)NC(=O)[C@H](Cc1ccc(O)cc1)NC(=O)[C@H](C)NC(=O)[C@H](CCSC)NC(=O)[C@H](C)N)C(=O)N[C@H](C(=O)N[C@@H](CCC(=O)O)C(=O)N[C@H](C(=O)N[C@H](C(=O)N[C@H](C(=O)N[C@H](C(=O)N[C@@H](CC(C)C)C(=O)N[C@@H](CC(C)C)C(=O)N[C@@H](CC(N)=O)C(=O)N[C@@H](CCCNC(=N)N)C(=O)N[C@@H](CC(C)C)C(=O)N[C@H](C(=O)N[C@@H](CC(=O)O)C(=O)N[C@@H](CCCNC(=N)N)C(=O)N[C@@H](CC(C)C)C(=O)N[C@@H](CCC(=O)O)C(=O)N[C@@H](CCCCN)C(=O)N[C@@H](Cc1ccc(O)cc1)C(=O)N[C@@H](C)C(=O)NCC(=O)O)[C@@H](C)O)[C@@H](C)CC)[C@@H](C)O)[C@@H](C)CC)C(C)C)[C@@H](C)O", "note": "[FhHDM-1 p3] (H-AMAYLAKDNLGEKITEVITILLNRLTDRLEKYAG-OH)", "values": [{"measurement": "interaction between LPS and LBP", "setting": "[1]", "result": "significantly reduced"}, {"measurement": "serum levels of IL-10", "setting": "[2]; [4]", "result": "significant reduction"}, {"measurement": "serum levels of TNF", "setting": "[2]; [4]", "result": "significant reduction"}, {"measurement": "LPS-induced secretion of IL-10 from peritoneal macrophages", "setting": "[2]; [5]", "result": "but not"}, {"measurement": "TNF secreted from peritoneal macrophages", "setting": "[2]; [5]", "result": "significantly reduced"}, {"measurement": "level of cell death", "setting": "[3]", "result": "same level of cell death as those cells cultured in media alone"}]}
